This is an account of results in PubChem BioAssay AID2685 (National Center for Advancing Translational Sciences (NCATS), 2010).

The list shows a part of the results. Shown are side measurements of this screen, not its main read-out; they come without a call. Compounds called inactive in the main read-out are mostly missing here. The note in brackets gives the kind of curve behind each potency; many fits are weak.

The nature of this assay: qHTS Assay for Lipid Storage Modulators in Drosophila S3 Cells.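 As to cell number change: cells counted by Cell Tracker Red CMTPX staining in the red channel.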 Particulars: BODIPY lipid droplet fluorescence, 18-24 h; for cell number change: measured here: cell count max response, cells fed with added oleic acid. The method, boiled down:
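Drosophila S3 cells got compounds at several concentrations plus oleic acid (400 uM solution). Laser-scanning cytometry with 488 nm excitation read lipid droplets at 500-530 nm and cells at 575-640 nm. Percent activity was relative to 20 uM Triacsin C.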
A general note: Quantitative high-throughput screening tests each substance at several concentrations.

Setting [1] is: measured here: lipid fluorescence (Fed channel) AC50, cells fed with added oleic acid.
[2] abbreviates: measured here: cell number channel AC50, cells fed with added oleic acid.

On to `CCOC(=O)c1cccc(NC(=O)CCc2nnc3ccc(N4CCCCC4)nn23)c1`, for which the cell number change was 28.6%. For the same compound, the AC50 under setting [1] is 29.1 µM [falling, single point].

For `CC1(C)CC(NC(=O)C2CCN(S(=O)(=O)c3cccc(C(F)(F)F)c3)CC2)CC(C)(C)N1`, the cell number change was -5.08%. With `CC(C)(C)c1ccc(C(=O)c2c[nH]c(C(=O)NCc3cccnc3)c2)cc1`, the cell number change stood at 72.2%. Further, under setting [2], the concentration at half-maximal activity (AC50) was 14.6 µM [rising, partial curve]. Besides, the AC50 under setting [1] was 16.4 µM [rising, partial curve].

With `O=C(CSc1ccc(Br)cc1)N1CCN(S(=O)(=O)c2ccccc2)CC1`, the cell number change was 1.62%. Regarding `Cc1cc(NC(=O)C(C)SCC(=O)OC(C)C(=O)Nc2cccc(C#N)c2)no1` (centres undefined), the cell number change was -54.6%. Moreover, the AC50 under setting [2] was 7.31 µM [falling, single point]. Further, under setting [1], the concentration at half-maximal activity (AC50) is 4.61 µM [falling, full curve].

`Cc1ccccc1-n1c(C)nc2ccccc21`: the cell number change turned out to be 73%. Besides, the AC50 under setting [2] is 5.8 µM [rising, partial curve]. Consider `CCOC(=O)N1CCC2(CC1)NCCc1c2[nH]c2ccccc12`, for which the cell number change is -8.88%. Consider `Cc1c(NC(C)c2ccccc2O)c(=O)n(-c2ccccc2)n1C` (centres undefined), for which the cell number change was -8.93%. Also, the AC50 under setting [1] is 0.731 µM [falling, full curve]. For `Cc1ccc(N2C(=O)CN(Cc3sccc3C)C2=S)cc1C`, the cell number change is -15.9%. Consider `COc1ccc(C(=O)NCCCNC(=O)c2cnccn2)cc1Br`, for which the cell number change is -5.26%. Turning to `Cc1cc(C)c(S(=O)(=O)c2ccc(Cl)cc2)c(Cl)n1`, the cell number change is -21.5%. Also, the AC50 under setting [1] is 0.517 µM [falling, full curve].

On to `Cn1c(NC(=O)CC(C)(C)C)cc(=O)n(C)c1=O`, for which the cell number change was determined as 6.86%. Moreover, the AC50 under setting [1] is 0.731 µM [rising, full curve, poor fit]. Take `CS(=O)(=O)N(CC(=O)Nc1ccccc1Br)Cc1ccccc1`: the cell number change is -13.5%. As for `Cc1ccc(C(=O)N2CC3(C)CN(C(=O)c4ccc(C)cc4)CC(C)(C2)C3=O)cc1`, the cell number change was -13.5%. Besides, the AC50 under setting [1] is 3.66 µM [falling, single point]. Regarding `Cc1cc(C(=O)Nc2ccc(Cl)cc2)c2ccccc2n1`, the cell number change is 31.6%. The AC50 under setting [2] is 32.6 µM [rising, single point]. Take `O=C(Nc1nc2c(s1)CN(Cc1ccccc1)CC2)C1CCC1`: the cell number change worked out at 22.9%. For the same compound, the half-maximal activity concentration (AC50) under setting [1] was 0.651 µM [falling, single point]. With `COc1ccc(NC(=O)CNS(=O)(=O)c2ccccc2)cc1Cl`, the cell number change was 90.2%. Take `O=C(CSc1nnc(NC(=O)c2ccccc2F)s1)NC1CCCC1`: the cell number change was determined as 11.7%. As to `C=CCn1c(SCC(=O)NC2CCCCC2)nnc1-c1sc(N)nc1C`, the cell number change was determined as 99.1%. Also, the concentration at half-maximal activity (AC50) under setting [2] is 14.6 µM [rising, partial curve]. Besides, the AC50 under setting [1] was 18.4 µM [rising, partial curve]. Consider `COc1nc(Cl)cn(-c2ccc(C)cc2)c1=O`, for which the cell number change was -17.2%. Moreover, the AC50 under setting [1] is 4.11 µM [falling, partial curve, poor fit]. For the compound `Cc1cc(/C=N/NC(=O)c2ccncc2)c(C)n1-c1cccc(C(F)(F)F)c1`, the cell number change is -5.99%. Moreover, the concentration at half-maximal activity (AC50) under setting [1] is 5.17 µM [falling, single point]. Turning to `COc1ccc(C)cc1N(C(=O)c1snc(C(N)=O)c1N)C(C(=O)NC1CCCCC1)c1ccc(C)o1` (centres undefined), the cell number change was -6.05%. For the same compound, under setting [1], the AC50 is 29.1 µM [falling, single point]. `N/C(=N\OC(=O)CC1CCCCC1)c1ccc([N+](=O)[O-])cc1`: the cell number change turned out to be 8.69%. Further, the AC50 under setting [1] is 0.461 µM [falling, full curve, poor fit]. In the case of `O=C(Cn1nc(-c2ccco2)ccc1=O)Nc1ccc(Cl)c(Cl)c1`, the AC50 under setting [1] is 29.1 µM [falling, single point]. For `O=C(Nc1cc(=O)c2ccccc2o1)N1CCOCC1`, the cell number change came out at 8.75%. Under setting [1], the AC50 was 0.164 µM [rising, full curve, poor fit]. Take `N#Cc1c(Sc2ncc(C(F)(F)F)cc2Cl)nsc1C/C=N\OCc1ccccc1Br`: the cell number change is -25.6%. The AC50 under setting [1] is 9.2 µM [falling, partial curve]. Consider `Cc1ccc(S(=O)(=O)Nc2ccccc2C(=O)N2CCCCC2)cc1`, for which the cell number change is -7.37%. Also, the AC50 under setting [1] was 29.1 µM [rising, single point].

For `Cc1c(C(=O)OCC(=O)Nc2ccc3c(c2)OCO3)cccc1[N+](=O)[O-]`, the cell number change worked out at 43.6%. Further, under setting [2], the AC50 was 2.06 µM [rising, partial curve]. The AC50 under setting [1] was 7.31 µM [rising, partial curve]. As for `CC1CCCCC1NC(=O)CN1CCC(NC(=O)c2ccc([N+](=O)[O-])cc2)CC1` (centres undefined), the cell number change was determined as 2.99%. For the same compound, the AC50 under setting [1] is 0.651 µM [rising, partial curve, poor fit]. For `C=CCN1C(=O)/C(=C/c2ccc(O)c(OC)c2)S/C1=N/c1nccs1`, the cell number change is -21%. The AC50 under setting [1] was 1.84 µM [rising, partial curve]. Turning to `CN(CC(=O)Nc1ccccc1Br)C(=O)CCc1nc2ccccc2c(=O)[nH]1`, under setting [1], the half-maximal activity concentration (AC50) is 1.03 µM [rising, partial curve].

In the case of `CC(Sc1nnc(COc2ccc3ccccc3c2)n1C)C(=O)O` (centres undefined), the cell number change was found to be 13.2%. Regarding `C[C@@H]1CC=C[C@H]2[C@H]1C(=O)N(Cc1ccccc1)[C@H]2c1ccc(Br)cc1F`, the cell number change was -25.1%. Moreover, under setting [1], the AC50 is 14.6 µM [falling, partial curve]. `Cc1ccc(-n2c(C)cc(/C=N/NC(N)=S)c2C)cc1`: the cell number change was determined as 9.1%. Also, the AC50 under setting [2] is 4.11 µM [falling, single point].

Regarding `C#CCCc1ccccc1/C=[N+](/C)[O-]`, the cell number change was -12.2%. Also, under setting [1], the AC50 is 2.31 µM [falling, partial curve]. For the compound `CN(C)CCCNC(=O)c1cc(C(=O)Cc2ccccc2)c[nH]1`, the cell number change is -46.3%. Further, under setting [2], the AC50 was 29.1 µM [falling, single point]. In addition, the AC50 under setting [1] is 1.03 µM [falling, partial curve, poor fit]. For `O=C(CCCCCn1c(=S)[nH]c2ccc(N3CCOCC3)cc2c1=O)NCc1cccc(Cl)c1`, the cell number change is -37.1%. For the same compound, the concentration at half-maximal activity (AC50) under setting [2] is 29.1 µM [falling, single point]. The AC50 under setting [1] was 29.1 µM [falling, single point]. For `Cc1n[nH]c(=O)c2c(NC(=O)COC(=O)/C=C/c3cccc(C(F)(F)F)c3)oc(C)c12`, the cell number change stood at 27.4%. Further, under setting [1], the AC50 was 4.61 µM [rising, partial curve]. For the compound `COc1ccc(S(=O)(=O)N(C)CC(=O)Nc2ccccc2C(F)(F)F)cc1OC`, the cell number change came out at 13.1%.

For `COc1ccc(N2CCN(C(=O)COC(=O)COc3cc(C)cc(C)c3)CC2)cc1`, the cell number change is -35.7%. In addition, the AC50 under setting [2] is 11.6 µM [falling, partial curve].

A word on the AC50: it is the concentration giving half of the maximal activity seen. A low value points to activity at low concentration.
